Results as given in PMC12624062.

Protein sequences, listed by entry. Tags and fused reporters are not part of them.
UniProt Q8CDG1: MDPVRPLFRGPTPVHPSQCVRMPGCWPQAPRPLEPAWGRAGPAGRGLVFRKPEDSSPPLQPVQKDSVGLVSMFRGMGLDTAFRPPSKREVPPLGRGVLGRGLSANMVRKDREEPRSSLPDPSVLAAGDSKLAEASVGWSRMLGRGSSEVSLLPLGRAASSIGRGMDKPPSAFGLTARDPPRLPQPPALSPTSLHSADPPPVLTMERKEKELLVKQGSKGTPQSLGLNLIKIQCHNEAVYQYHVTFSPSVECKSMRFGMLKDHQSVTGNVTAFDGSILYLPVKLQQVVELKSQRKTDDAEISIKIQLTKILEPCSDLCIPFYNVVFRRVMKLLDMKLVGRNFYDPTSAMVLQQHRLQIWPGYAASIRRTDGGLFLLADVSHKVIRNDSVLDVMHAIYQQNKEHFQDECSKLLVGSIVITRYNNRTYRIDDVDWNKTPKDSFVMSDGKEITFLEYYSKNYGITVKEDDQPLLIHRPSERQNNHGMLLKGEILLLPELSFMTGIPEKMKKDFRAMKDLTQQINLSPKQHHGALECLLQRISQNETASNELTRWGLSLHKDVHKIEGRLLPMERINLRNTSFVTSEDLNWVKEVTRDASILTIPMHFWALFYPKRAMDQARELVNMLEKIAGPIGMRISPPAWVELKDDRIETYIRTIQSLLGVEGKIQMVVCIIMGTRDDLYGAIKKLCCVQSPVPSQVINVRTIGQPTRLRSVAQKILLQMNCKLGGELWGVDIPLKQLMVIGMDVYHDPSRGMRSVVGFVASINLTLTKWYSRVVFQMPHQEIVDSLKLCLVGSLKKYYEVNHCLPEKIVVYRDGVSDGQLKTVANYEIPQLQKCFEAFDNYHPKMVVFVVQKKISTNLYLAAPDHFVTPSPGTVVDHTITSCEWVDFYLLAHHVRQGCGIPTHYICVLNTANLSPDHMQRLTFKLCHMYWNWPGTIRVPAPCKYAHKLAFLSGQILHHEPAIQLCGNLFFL

T1: ASZ1 (endogenous, mouse testis) (mouse (endogenous in testis)) (UniProt Q8VD46)
T1 sequence: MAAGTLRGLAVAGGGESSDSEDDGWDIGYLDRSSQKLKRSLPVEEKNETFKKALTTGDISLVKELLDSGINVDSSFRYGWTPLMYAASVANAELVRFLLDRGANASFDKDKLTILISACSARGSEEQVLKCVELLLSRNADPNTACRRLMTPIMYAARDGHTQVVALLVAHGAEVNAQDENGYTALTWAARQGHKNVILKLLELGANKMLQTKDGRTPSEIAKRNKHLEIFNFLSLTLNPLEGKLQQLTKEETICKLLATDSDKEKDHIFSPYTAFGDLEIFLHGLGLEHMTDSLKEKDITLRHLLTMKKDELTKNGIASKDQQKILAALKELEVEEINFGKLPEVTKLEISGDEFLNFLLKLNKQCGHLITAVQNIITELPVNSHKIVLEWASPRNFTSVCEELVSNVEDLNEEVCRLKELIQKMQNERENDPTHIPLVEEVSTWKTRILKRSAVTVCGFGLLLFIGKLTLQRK

B1: GPAT2 (endogenous, mouse testis) (protein, UniProt Q14DK4 1-801)
chain: MDTMLKSNPQTQQRSNHNGQETSLWSSSFGMKMEAITPFLGKYRPFMGRCCQTCTPKSWESLFHRSIMDLGFCNVILVKEENTRFRGWLVRRLCYFLWSLEQHIPTSFDASQKIMENTGVQNLLSGRVPGAAGEGQAPELVKKEVQRILGHIQTTPRPFLLRLFSWALLWFLNRLFLNVQLHKGQMKMVQKAVQEGSPLVFLSTHKSLLDGFLLPFVLFSQGLGVVRVALDSRTCSPALRALLRKLGGLFLPPEVNLSLDNSEGILARAVVRATVEELLTSGQPLLIFLEEPPGSPGPRLSALGQAWLGVVIQAVQAGIISDATLVPVAIAYDLVPDAPCNMNHDLAPLGLWTGALAVFRRLCNCWGCNRRVCVRVHLAQPFSLQEYTINARSCWDSRQTLEHLLQPIVLGECSVVPDTEKEQEWTPPTGLLLALKEEDQLLVRRLSRHVLSASVASSAVMSTAIMATLLLLKHQKGVVLSQLLGEFSWLTEETLLRGFDVGFSGQLRCLAQHTLSLLRAHVVLLRVHQGDLVVVPRPGPGLTHLARLSMELLPTFLSEAVGACAVRGLLAGRVPPEGPWELQGIELLSQNELYRQILLLLHLLPQDLLLPQPCQSSYCYCQEVLDRLIQCGLLVAEETPGSRPACDTGRQHLSAKLLWKPSGDFTDSESDDFEEPGGRCFRLSQQSRCPDFFLFLCRLLSPILKAFAQAATFLHLGQLPDSEVAYSEKLFQFLQACAQEEGIFECADPNLAISAVWTFKDLGVLQEMPSPTGPQLHLSPTFATRDNQDKLEQFIRQFICS
B2: MAEL (endogenous, mouse testis) (protein, UniProt Q8BVN9 1-434)
chain: MPNRRASRNAYYFFVQEKIPELRRRGLPVARVADAIPYCSADWALLREDEKEKYSEMAREWRAAQGKDSGPSEKQKLVSTPLRRPGMLVPKPSISPPDMSNLSIKSDQALLGGIFYFLNIFSHGELPPHCEQRFLPCEIGCVKYSLQEGIMADFHSFIHPGEIPRGFRFHCQAASDSSHKIPISNFEFGHDQATVLQNLYKFIHPNPGNWPPIYCKSDDRARVNWCLKRMERASEIRQDLELLTVEDLVVGIYQQKFLKEPSKTWVRSLLDVAMWDYSSNTRCKWHEENDILFCALAVCKKIAYCISNSLATLFGIQLTGAHVPLQDYEASNSVTPKMVVLDAGRYQKLRVESPGFCHFNSYNQEQRSNTSTGYYPSGVKISGPHSSVRGRGITRLLESISNSSNNIHRFSSCETSLSPYTPQKDGYKPFSSFS
B3: TDRD7 (endogenous, mouse testis) (protein, UniProt Q8K1H1 1-1086)
chain: MLEADLVSKMLRAVLQSHKNGIVLPRLQGEYRSLTGDWIPFKQLGYPTLEAYLRSVPAVVRIEASRSGEIVCYAVACTETARIAQLVARQRTSKRKIGRQINCQMRVKKAMPFFLEGKPKATLRQPGFASDYSISRKPNSALLRDRGSALGVKADVDMPPYPDTPVQRHASMSANSRFSPKSSLPASFQTHISRACPTEVNDNLNQTVEKPNITPPASYTNKMDEVQNRIKEILDKHNNGIWISKLPHFYKEFYKEDLNQGVLQQFEHWPHICTVEKPCGGGQDSLLYPARREQPLKSDQDPEKELPPPPPAPKQEVPSQGSPAVMPDVKEKVAELLGKYSSGLWASALPKAFEDMYKVKFPEDALKNLASLSDVCTINYISGNTQKAILYAKLPLPTDKILKDEGQAQGDFDIKSMIEQEYLQIEKNMAESADEFLEDITVPPLVIPTEASPSVLVVELSNTNDVVIRYVGKDYSAAQELMEDEMKEFYSKNPRVTPIQTVHVGQLLAVNAEEDAWLRAQIISTDENKIKVCYVDYGFCENIEKSKAYRLNPRFCSLSFQATKCKLAGLEVLNDDPDLVKAVESLTCGKIFAVEILDKSDVPLVVLYDTSGEDDININATCLKAICDRSLQVHLQVDAMYTNVKVTNICSDGTLYCQVPCKGLNKLNDLLHKTEDYFHCKHMTSEYFISLPFCGKICLFHCKGKWLRVEITNVHSSRALDVQFLDSGNSTSVKVSELREIPPRFLQEMLAIPPQAIKCCLADLPQSIGMWTPDAVLWLRDSVLNCSDCSIKVTKMDETKGVAYVYLFTPNNFPDPHRSINRQITNADLWKHQKDVFLSAVSTAASSPGNRNGGTPAPGSPAESLRKSHPEVIKKSVLDHTSSFSLEELPPPVHLSRSGEHMDVYVPVACHPGHFVIQPWQEIHKLEVLMEEMILYYSVSEERHIAVERDQVYAAKVENKWYRVLLKGILTNGLVSVYELDYGKHELVNIRKVQPLVDVFRKLPFQAVTAQLAGVKCSQWSEEASMVFRNHVEKKALVALVQTVVEHTNPWDRKVVLYLVDTSLPDTDTWIHDFMSQYLLELSKVN
B4: TDRD1 (endogenous, mouse testis) (protein, UniProt Q99MV1 1-1172)
chain: MMPRNNLEASTCKMAEPFNFEKKESKPPPQDPLRSPVAQHNHPTFRLKSPENGNTKNNFLLCEQNKQYLASQEDSSVVSSNPAVVNGEVGGSKGDRKPPPTGNPVSPLSLGNSSPPNQVKTKPSSNVTPEKSKKSHKLFENALSVNNPALFNSLGPPLRSTTCHRCGLFGSLRCSQCKQTYYCSTACQRRDWSSHSTICRPVQQSLNKLEDNKSPFETKAIEVKSEVDCPPGVTKEITAGAERVMFSDLRSLQLKKTMEIKGTVTEFKHPSNFYIQLYSSEVLENMNQLSTSLKETYANVVPEDGYLPVKGEVCVAKYTVDQTWNRAIVQAVDVLQRKAHVLYIDYGNEEMIPIDSVHPLSRGLDLFPPSAIKCCVSGVIPTAGEWSEGCVAAVKALLFEQFCSVKVMDILEEEVLTCAVDLVLQSSGKQLDHVLVEMGYGVKPGEQSSTEQSVDHSALEDVGRVTVESKIVTDRNALIPKVLTLNVGDEFCGVVAHIQTPEDFFCQQLQSGHKLAELQESLSEYCGHVIPRSDFYPTIGDVCCAQFSEDDQWYRASVLAYASEESVLVGYVDYGNFEILSLKRLCPIIPKLLDLPMQALNCVLAGVKPSLGIWTPEAVCVMKEMVQNRMVTVRVVGMLGTRALVELIDKSVAPHVSASKALIDSGFAIKEKDVADKGSSMHTASVPLAIEGPAEALEWTWVEFTVDETVDVVVCMMYSPGEFYCHFLKDDALEKLDDLNQSLADYCAQKPPNGFKAEIGRPCCAFFSGDGNWYRALVKEILPSGNVKVHFVDYGNVEEVTTDQLQAILPQFLLLPFQGMQCWLVDIQPPNKHWTKEATARFQACVVGLKLQARVVEITANGVGVELTDLSTPYPKIISDVLIREQLVLRCGSPQDSLMSRPANQHKQIDSHRVQASPSAEQWKTMELPVNKTIAANVLEIISPALFYAIPSEMSENQEKLCVLAAELLEHCNAQKGQPAYRPRTGDACCAKYTNDDFWYRAIVLETSESDVKVLYADYGNIETLPLSRVQPIPASHLELPFQIIRCSLEGPMELNGSCSQLVMELLRNAMLNQSVVLSVKAISKNVHAVSVEKCSENGMINIAENLVMCGLAENLTSKRKSASTKEIPHSRDCCCTELQKQIEKHEQILLFLLNNPTNQSKFTEMKKLLRS
B5: PNLDC1 (endogenous, mouse testis) (protein, UniProt B2RXZ1 1-531)
chain: MDVGADEFEQSLPLLQELVAGADFVGLDIEFTGLRSNLSRPQQISLFDLPSEWYLKTRQSVQQFTICQIGLSMFSSIEGESNKYVAHSCNFFLFPTTFGILDSEFSFQASSVQFLNQYGFDYNKFLKNGIPYMNEEQEKKIKHSILRGNWRVRSSLDKDQIKVVIDKVTQWLDLAEEGDQMTLPGIAGFQAFEVQLVLRQALPNIWTVLKEEWVIVKKVSQPQRWYLEHASCDQVSCWKEQILLSARGFSVFFQMLVKAQKPLVGHNMMMDLLHLHEKFFRPLPESYDQFKQNIHSLFPVLIDTKNVTKDIWKELRFPRVSNLLEVYEVLSSNLNPTKDSGPVIIHARQCKKYAETKCPHEAAYDAFLCGSVLLKVAHLLLQRVHGNGAVHEPAFPQYLDVLAPYVNQVNLIRAGVPKINFSGPDYPSIRPPVLILTVKRWPGVSEQQVYREFQNLCKFDVRRFTRSQFLLLTNKFKDARSVLKEYRNHPTLQVSLYRSWRHSPNITCLLQVCSIVTTWAMIAFLLGRPMP
B6: ASZ1 (endogenous, mouse testis) (protein, UniProt Q8VD46 1-475)
chain: T1 sequence
B7: HENMT1 (endogenous, mouse testis) (protein, UniProt Q8CAE2 1-395)
chain: MEMAESIPCNSVVGGNFKEVSPEKVIRFKPPLYKQRYQFVRDLVDRHEPKKVADLGCGDAKLLKLLKIYPCIQLLVGVDINEEKLHSNGHRLSPYLGEFVKPRDLDLTVTLYHGSVVERDSRLLGFDLITCIELIEHLDSDDLARFPDVVFGYLSPAMVVISTPNAEFNPLFPTVTLRDADHKFEWSRMEFQTWALHVANCYNYRVEFTGVGTPPAGSEHVGYCTQIGVFTKNGGKLSKPSVSQQCDQHVYKPVYTTSYPSLQQEKVLKFVLVGELLIQVDRLRLRYQRMLRDREKDRGPKPGDMDSCPAPHLLLGAVFTEAEKARIESSPKPFCEGEKFYIPLQRLLTYPKLHRLCADEDRVRSLIADSVCLSSDGSAVVVDLHNSWDYRPEEN

These binders were tested against T1, ASZ1 (endogenous, mouse testis) (mouse (endogenous in testis)) (assay: affinity purification with mass spectrometry; P20 wild-type mouse testis lysates; IP with PIWIL2, ASZ1 or TDRD1 antibodies against rabbit IgG control; Protein A/G agarose; LC-MS; n = 3).

Row | binding | Binder
1 | binds | B1

Each binder was assayed against PIWIL2 (endogenous, mouse testis) (mouse (endogenous in testis)) (UniProt Q8CDG1) in the same assay as above.

Row | binding | Binder
2 | binds | B2
3 | binds | B3
4 | binds | B4
5 | binds | B5
6 | binds | B6
7 | binds | B7

Results are given in words; binding and its absence hold for the method and conditions named. Binding seen in cells or lysates may run through a third protein. These calls come from enrichment with a bait or labelling near it, and not all partners need be listed.
